According to PMC9576728:
These are yes or no findings as the source states them, for the method shown. Binding seen in cells or lysates may run through a third protein. Some entries that bind do so weakly or less than the wild type. Sequences can lack the tags named with a protein.

Key:
POU2F3 = molecular target: T1, POU2F3 (UniProt Q9UKI9); assay: co-IP; immunoprecipitation-western blot of HEK293T cells expressing HA-COLCA2 (WT or DAAPP mutant) and POU2F3 (Fig. 1g); which protein was precipitated is not told
T1 sequence: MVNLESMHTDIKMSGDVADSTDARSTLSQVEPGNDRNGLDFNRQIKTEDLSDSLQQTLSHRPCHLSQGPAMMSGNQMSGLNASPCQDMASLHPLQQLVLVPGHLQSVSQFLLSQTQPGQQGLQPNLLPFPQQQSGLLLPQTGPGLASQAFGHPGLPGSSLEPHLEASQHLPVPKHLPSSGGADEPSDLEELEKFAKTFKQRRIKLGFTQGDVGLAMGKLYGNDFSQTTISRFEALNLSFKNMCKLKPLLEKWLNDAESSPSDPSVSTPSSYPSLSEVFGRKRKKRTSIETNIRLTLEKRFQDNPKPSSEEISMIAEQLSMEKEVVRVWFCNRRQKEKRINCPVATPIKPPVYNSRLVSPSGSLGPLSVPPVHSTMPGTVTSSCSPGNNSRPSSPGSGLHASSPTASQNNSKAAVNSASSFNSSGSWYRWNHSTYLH

FLAG-POU2F3 = molecular target: T2, FLAG-POU2F3 (UniProt Q9UKI9); assay: co-IP; immunoprecipitation-western blot of HEK293T cells expressing FLAG-POU2F3 and HA-COLCA2-WT/DAAPP (Fig. 1h); which protein was precipitated is not told
T2 sequence: T1 sequence

binding (POU2F3): binds
binding (FLAG-POU2F3): binds
B1: HA-COLCA2 (WT) (protein, UniProt A8K830 1-251)
chain: MSEKPKVYQGVRVKITVKELLQQRRAHQAASGGTRSGGSSVHLSDPVAPSSAGLYFEPEPISSTPNYLQRGEFSSCVSCEENSSCLDQIFDSYLQTEMHPEPLLNSTQSAPHHFPDSFQATPFCFNQSLIPGSPSNSSILSGSLDYSYSPVQLPSYAPENYNSPASLDTRTCGYPPEDHSYQHLSSHAQYSCFSSATTSICYCASCEAEDLDALQAAEYFYPSTDCVDFAPSAAATSDFYKRETNCDICYS
